Assay results taken from patent publication US20240101663A1.
Results are given in words; binding and its absence hold for the method and conditions named. Some entries that bind do so weakly or less than the wild type.

The chains behind the UniProt entries cited, without tags or fusion partners. Residues count along the entry.
UniProt Q8NHJ6, residues 22-259: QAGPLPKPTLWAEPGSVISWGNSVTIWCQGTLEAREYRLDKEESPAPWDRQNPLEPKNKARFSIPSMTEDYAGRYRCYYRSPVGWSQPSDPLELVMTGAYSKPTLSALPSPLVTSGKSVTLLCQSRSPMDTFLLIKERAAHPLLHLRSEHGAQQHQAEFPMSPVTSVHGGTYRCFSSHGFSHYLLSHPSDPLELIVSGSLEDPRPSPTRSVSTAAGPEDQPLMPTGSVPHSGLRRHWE
UniProt P28908, residues 19-385: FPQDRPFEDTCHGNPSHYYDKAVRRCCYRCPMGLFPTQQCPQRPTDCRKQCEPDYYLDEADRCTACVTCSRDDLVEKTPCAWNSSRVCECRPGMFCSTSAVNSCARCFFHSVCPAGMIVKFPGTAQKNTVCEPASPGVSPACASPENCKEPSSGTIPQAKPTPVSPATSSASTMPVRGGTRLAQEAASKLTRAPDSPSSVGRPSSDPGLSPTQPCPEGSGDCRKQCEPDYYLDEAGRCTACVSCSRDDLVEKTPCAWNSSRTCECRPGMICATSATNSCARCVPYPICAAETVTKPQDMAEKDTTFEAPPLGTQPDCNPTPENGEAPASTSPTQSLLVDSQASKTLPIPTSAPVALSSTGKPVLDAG

Tests used:
[1] = target: LILRB4 extracellular region protein fragment labeled with hFc (UniProt Q8NHJ6); experiment: ELISA, CCDC112 coated at 10, 3.3 and 1.1 ug/mL, LILRB4-hFc at 2 µg/mL (sheet title; the text says 1 µg/mL), anti-human Fc detection, 450 nm
[2] = target: CD30 extracellular region protein fragment labeled with hFc (UniProt P28908); experiment: ELISA, CCDC112 coated, CD30-hFc in solution at different pH values
[3] = target: LILRB4 extracellular region protein fragment labeled with hFc (UniProt Q8NHJ6); experiment: ELISA, CCDC112 coated at different concentrations, receptor-hFc in solution
[4] = target: LILRB4 extracellular region protein fragment labeled with hFc (UniProt Q8NHJ6); experiment: ELISA with yeast-expressed CCDC112 protein
[5] = target: CD30 extracellular region protein fragment labeled with hFc (UniProt P28908); experiment: ELISA with yeast-expressed CCDC112 protein
[6] = target: CD30 extracellular region protein fragment labeled with hFc (UniProt P28908); experiment: ELISA, coated CCDC112 gradient, CD30-hFc at 0.5 µg/mL at five pH values; target taken from the plot title 'CCDC112-CD30' (legend paragraph 73 names LTBR for FIG. 4)
[7] = target: LILRB4 extracellular region protein fragment labeled with hFc (UniProt Q8NHJ6); experiment: ELISA, CCDC112 coated, 1 ug/mL receptor-hFc, anti-human Fc detection
[8] = target: CD30 extracellular region protein fragment labeled with hFc (UniProt P28908); experiment: as above

Measured: binding

B1: CCDC112 recombinant protein (coiled-coil domain-containing protein 112) (ligand)
chain: MEKDKHSHFYNQKSDFRIEHSMLEELENKLIHSRKTERAKIQQQLAKIHNNVKKLQHQLKDVKPTPDFVEKLREMMEEIENAINTFKEEQRLIYEELIKEEKTTNNELSAISRKIDTWALGNSETEKAFRAISSKVPVDKVTPSTLPEEVLDFEKFLQQTGGRQGAWDDYDHQNFVKVRNKHKGKPTFMEEVLEHLPGKTQDEVQQHEKWYQKFLALEERKKESIQIWKTKKQQKREEIFKLKEKADNTPVLFHNKQEDNQKQKEEQRKKQKLAVEAWKKQKSIEMSMKCASQLKEEEEKEKKHQKERQRQFKLKLLLESYTQQKKEQEEFLRLEKEIREKAEKAEKRKNAADEISRFQERDLHKLELKILDRQAKEDEKSQKQRRLAKLKEKVENNVSRDPSRLYKPTKGWEERTKKIGPTGSGPLLHIPHRAIPTWRQGIQRRV
binds: [1] | [2] | [3] | [4] | [5] | [6] | [7] | [8]
